This assay deals with Madison 109 lung carcinoma i.m., mice, median survival. Briefly: NCI In Vivo Anticancer Drug Screen. Data for tumor model Madison 109 Lung Carcinoma (intramuscular) in unknown mice. As to conditions: T/C endpoint: median survival time, schedule: Q01DX005 (ip), vehicle: saline, higher T/C = longer survival. The procedure:
The antitumor activity of compounds was measured in mice bearing transplantable tumors. Survival or tumor size were measured and the results are expressed as the measurement made in the treated group (T) divided by the measurement made in the vehicle treated control group (C). The tumor model used in this assay is Madison 109 Lung Carcinoma (intramuscular) in unknown mice

SMILES strings stand for the structures. The list does not hold the whole screen: it gathers some chemical classes. Not every dose and run of a compound is shown. T/C is the treated group as % of the vehicle group. For survival time, the PubChem record calls one and a half times the control and up active, and a quarter to a half above the control has no call in these data; cut-offs in other NCI protocols can differ. Some T/C values are marked as having no survivor count here; that says nothing about deaths at the dose. Schedule codes are those of the source, taken here to give the interval after Q, in days (D) or hours (H), and the number of doses after X.

With `CN(CCCl)CCCl`, the T/C runs as follows: (dose: 0.13 mg/kg/injection) 100 % of control [survivor count not shown]; (dose: 0.36 mg/kg/injection) 92 % of control [survivor count not shown]; (dose: 0.6 mg/kg/injection) 97 % of control [survivor count not shown].

(Values after PubChem BioAssay AID300 (DTP/NCI, 2004).)
